Results on 1 molecule are retold here after US7413866B2, “Compositions and methods for detecting and treating diseases and conditions related to chemokine receptors” (ChemoCentryx, Inc., priority 2001, dated 2008).

No constants are given. Whether binding was seen depends on the method and setting. Binding can be weak; no strength is given.

The assay addresses CXCR4 as expressed on breast tumor cells (MCF-7, MDA MB-231) (human). Nature of the assay: DisplaceMax displacement of ^125I SDF-1α on MCF-7 cells.

B1: mouse I-TAC (ligand, UniProt Q9JHH5 22-100, looked up)
chain: FLMFKQGRCLCIGPGMKAVKMAEIEKASVIYPSNGCDKVEVIVTMKAHKRQRCLDPRSKQARLIMQAIEKKNFLRRQNM
As to B1, the binding result is “binds”.
